The list shows only some results of the screen, not a fair sample: it is rich in T/C values a quarter to a half above the control, in often repeated tests (any T/C) and in doses without a T/C. Other doses and runs of a compound stand elsewhere. T/C: endpoint of the treated group in % of that of the vehicle group. Some doses have a count of surviving animals in place of a T/C: the source files T/C as zero there, which appears to mark a toxic dose or a test without result, not a measured value. Some survivor counts are full or nearly so, which does not show that the dose was tolerated: survival well below the control is almost never listed, so the zero probably covers shortened survival too. Survivors were counted at the toxicity check, usually on the fifth day, unless a day is given; later deaths do not show. Schedules are NCI's codes, taken here to give the interval after Q, in days (D) or hours (H), and the number of doses after X. Where survival is the endpoint, this PubChem deposit counts one and a half times the control or more as active, and values a quarter to a half above the control carry no call in these data; other NCI protocols may use other cut-offs. Some entries were tested several times; the results are listed from low to high.
Tested on: CD2F1 mice, L1210 leukemia ip, survival T/C
Test: NCI In Vivo Anticancer Drug Screen. Data for tumor model L1210 Leukemia (intraperitoneal) in CD2F1 (CDF1) mice
Details: higher T/C = longer survival
Description: The antitumor activity of compounds was measured in mice bearing transplantable tumors. Survival or tumor size were measured and the results are expressed as the measurement made in the treated group (T) divided by the measurement made in the vehicle treated control group (C). The tumor model used in this assay is L1210 Leukemia (intraperitoneal) in CD2F1 (CDF1) mice

[1] = T/C endpoint: mean survival time, dose: 400.0 mg/kg/injection, schedule: Q04DX003 (ip), vehicle: saline
[2] = T/C endpoint: mean survival time, dose: 100.0 mg/kg/injection, schedule: Q01DX001 (ip), vehicle: saline with Tween-80
[3] = T/C endpoint: mean survival time, dose: 200.0 mg/kg/injection, schedule: Q01DX001 (ip), vehicle: saline with Tween-80
[4] = T/C endpoint: mean survival time, dose: 400.0 mg/kg/injection, schedule: Q01DX001 (ip), vehicle: saline with Tween-80
[5] = T/C endpoint: mean survival time, dose: 100.0 mg/kg/injection, schedule: Q04DX003 (ip), vehicle: saline with Tween-80
[6] = T/C endpoint: mean survival time, dose: 200.0 mg/kg/injection, schedule: Q04DX003 (ip), vehicle: saline with Tween-80
[7] = T/C endpoint: mean survival time, dose: 400.0 mg/kg/injection, schedule: Q04DX003 (ip), vehicle: saline with Tween-80

For `CCNC(C)(C)C(SSSC(c1ccc(Cl)cc1)C(C)(C)NCC)c1ccc(Cl)cc1` (configuration not stated), the survivor count [1] was 1 of 6.

In the case of `Nc1nc2c(ncn2-c2cccc3ccccc23)c(=O)[nH]1`, the survivor count [2] is reported as 6 of 6, the survivor count [3] is reported as 6 of 6 and the survivor count [4] is reported as 6 of 6.

For `CCCCCCCCCCCCSC1=C(Cl)C(=O)C(OC)=C(OC)C1=O`, the survivor count (T/C endpoint: mean survival time, dose: 100.0 mg/kg/injection, schedule: Q01DX009 (ip), vehicle: saline with Tween-80) was 3 of 6.

`CCOC(=O)c1cc([N+](=O)[O-])cc([N+](=O)[O-])c1Sc1ncnc2nc[nH]c12` was tested, and the T/C (T/C endpoint: mean survival time, dose: 12.5 mg/kg/injection, schedule: Q01DX005 (ip), vehicle: other) was 126 % of control, the T/C (T/C endpoint: mean survival time, dose: 25.0 mg/kg/injection, schedule: Q01DX005 (ip), vehicle: other) was 143 % of control and the T/C (T/C endpoint: mean survival time, dose: 37.5 mg/kg/injection, schedule: Q01DX005 (ip), vehicle: other) was 126 % of control. For the same compound, the T/C (T/C endpoint: mean survival time, dose: 50.0 mg/kg/injection, schedule: Q01DX005 (ip), vehicle: other) was 145 % of control and the survivor count (T/C endpoint: mean survival time, dose: 75.0 mg/kg/injection, schedule: Q01DX005 (ip), vehicle: other) was 0 of 3.

With `CNP1(N(C)C)=NP(NC)(N(C)C)=NP(NC)(N(C)C)=N1` (configuration not stated) the survivor count [1] was 1 of 6.

In the case of `O=C1C=CC(=O)C2CC=CCC12` (configuration not stated), the survivor count [2] is reported as 3 of 6, the survivor count [5] is reported as 0 of 6 and the survivor count [3] is reported as 0 of 6. The survivor count [6] was 0 of 6, the survivor count [4] was 0 of 6 and the survivor count [7] was 0 of 6.

In the case of `O=C1CSC(=S)N1/N=C/c1cc(Cl)cc(Cl)c1O`, the survivor count (T/C endpoint: mean survival time, dose: 300.0 mg/kg/injection, schedule: Q01DX001 (ip), vehicle: other) is reported as 0 of 6.

For `CC(C)([CH2][Sn]([Cl])([Cl])[CH2]C(C)(C)c1ccccc1)c1ccccc1`, the survivor count (T/C endpoint: mean survival time, dose: 25.0 mg/kg/injection, schedule: Q04DX002 (ip), vehicle: saline with Tween-80) was 1 of 3, the survivor count (T/C endpoint: mean survival time, dose: 50.0 mg/kg/injection, schedule: Q04DX002 (ip), vehicle: saline with Tween-80) was 0 of 3 and the survivor count (T/C endpoint: mean survival time, dose: 100.0 mg/kg/injection, schedule: Q04DX002 (ip), vehicle: saline with Tween-80) was 0 of 3. The survivor count (T/C endpoint: mean survival time, dose: 200.0 mg/kg/injection, schedule: Q04DX002 (ip), vehicle: saline with Tween-80) was 0 of 3.

With `CNCc1ccc2c(c1)OCO2` the survivor count (T/C endpoint: mean survival time, dose: 300.0 mg/kg/injection, schedule: Q01DX001 (ip), vehicle: saline) was 1 of 6.

`CCn1c(=S)[nH]c(=O)c2n[nH]nc21` was tested, and the survivor count (T/C endpoint: mean survival time, dose: 400.0 mg/kg/injection, schedule: Q01DX009 (ip), vehicle: acetone) was 3 of 6.

For `N#CCCc1ccccc1`, the survivor count (T/C endpoint: mean survival time, dose: 50.0 mg/kg/injection, schedule: Q04DX003 (ip), vehicle: saline with Tween-80) was 2 of 6, the survivor count [5] was 3 of 6 and the survivor count [6] was 1 of 6.

In the case of `O=C(Nc1ccc(Cl)c(Cl)c1)Sc1ccc(Cl)cc1`, the survivor count [6] is reported as 1 of 6 and the survivor count [7] is reported as 0 of 6.

`NCc1cccn1OCc1ccccc1` was tested, and the survivor count (T/C endpoint: mean survival time, dose: 200.0 mg/kg/injection, schedule: Q01DX009 (ip), vehicle: Klucel (hydroxypropylcellulose) (HPC)) was 0 of 6.

For `O=C(C=C(C(F)(F)F)C(F)(F)F)c1ccco1`, the survivor count [5] was 6 of 6, the survivor count [6] was 0 of 6 and the survivor count [7] was 0 of 6.

For `CC[C@@]1(OC(=O)CN2CCNCC2)C(=O)OCc2c1cc1n(c2=O)Cc2cc3ccccc3nc2-1`, the T/C (T/C endpoint: median survival time, dose: 12.5 mg/kg/injection, schedule: Q04DX002 (ip), vehicle: water) was 125 % of control and the T/C (T/C endpoint: median survival time, dose: 25.0 mg/kg/injection, schedule: Q04DX002 (ip), vehicle: water) was 131 and 142 % of control.

With `O=C(c1ccccc1)C1C(c2ccccc2)OP(c2ccccc2)(c2ccccc2)(c2ccccc2)C1c1ccccc1` (configuration not stated) the survivor count [5] was 1 of 6, the survivor count [6] was 0 of 6 and the survivor count [7] was 0 of 6.

For `Cc1cc2nc(N)[nH]c2cc1C`, the survivor count (T/C endpoint: mean survival time, dose: 100.0 mg/kg/injection, schedule: Q04DX002 (ip), vehicle: saline + alcohol) was 1 of 3, the survivor count (T/C endpoint: mean survival time, dose: 200.0 mg/kg/injection, schedule: Q04DX002 (ip), vehicle: saline + alcohol) was 0 of 3 and the survivor count (T/C endpoint: mean survival time, dose: 400.0 mg/kg/injection, schedule: Q04DX002 (ip), vehicle: saline + alcohol) was 0 of 3.

`CCOc1ccc(/C=C/c2ccc3ccccc3[n+]2C)cc1OCC` was tested, and the survivor count (T/C endpoint: mean survival time, dose: 50.0 mg/kg/injection, schedule: Q01DX001 (ip), vehicle: saline with Tween-80) was 0 of 6, the survivor count [2] was 0 of 6 and the survivor count [3] was 0 of 6.

In the case of `CSc1nc(C)cc(N)n1`, the survivor count [7] is reported as 3 of 6.

For `COc1nc(-c2ccncc2)nc(N(C)C)n1`, the survivor count (T/C endpoint: mean survival time, dose: 18.0 mg/kg/injection, schedule: Q04DX002 (ip), vehicle: saline) was 1 of 3, the survivor count (T/C endpoint: mean survival time, dose: 25.0 mg/kg/injection, schedule: Q01DX002 (ip), vehicle: saline) was 0 of 3 and the survivor count (T/C endpoint: mean survival time, dose: 50.0 mg/kg/injection, schedule: Q01DX002 (ip), vehicle: saline) was 0 of 3. The survivor count (T/C endpoint: mean survival time, dose: 100.0 mg/kg/injection, schedule: Q01DX002 (ip), vehicle: saline) was 0 of 3.

For `COC1=CC(=O)C(C2CC(=O)c3c(O)cc(O)cc3O2)=CC1=O` (configuration not stated), the survivor count (T/C endpoint: mean survival time, dose: 200.0 mg/kg/injection, schedule: Q01DX009 (ip), vehicle: saline with Tween-80) was 2 of 6 and the survivor count (T/C endpoint: mean survival time, dose: 400.0 mg/kg/injection, schedule: Q01DX009 (ip), vehicle: saline with Tween-80) was 1 of 6.

`CCOC(=O)C(C)C(=O)O` (configuration not stated) was tested, and the survivor count [1] was 3 of 6.

In the case of `NC(CSC(c1ccccc1)(c1ccccc1)c1ccc(F)cc1)C(=O)O` (configuration not stated), the T/C (T/C endpoint: mean survival time, dose: 100.0 mg/kg/injection, schedule: Q01DX009 (ip), vehicle: saline) is reported as 130 % of control, the survivor count (T/C endpoint: mean survival time, dose: 200.0 mg/kg/injection, schedule: Q01DX009 (ip), vehicle: saline) is reported as 3 of 6 and the survivor count (T/C endpoint: mean survival time, dose: 400.0 mg/kg/injection, schedule: Q01DX009 (ip), vehicle: saline) is reported as 0 of 6.

In the case of `CN1CCC(CO)C1` (configuration not stated), the survivor count (T/C endpoint: mean survival time, dose: 400.0 mg/kg/injection, schedule: Q01DX009 (ip), vehicle: water) is reported as 1 of 6 and the survivor count [1] is reported as 0 of 6.

Reference: PubChem BioAssay AID256 (DTP/NCI, 2004)
